Data source: PubChem BioAssay AID1671195 (Yale University, 2021)
Test: 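Regulators of LDL receptor activity judged by labelled LDL uptake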 (primary screen). Cell system: human Huh7 hepatoma cells. Reagent: siRNA pool against human genes, 18 nM. Duration: about 2 to 2.5 days of knockdown, then 8 h LDL uptake. Conditions: DiI-labelled LDL at 30 µg/ml for 8 h, in lipoprotein-deficient serum medium. Measurement: 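Fluorescent LDL signal imaged in cells, scaled to the plate median, robust z-score for each replicate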. Scale: robust z-score: higher = more LDL uptake after knockdown. Rule for the call: 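Active when two or more replicates show a robust z-score above 2 or below -2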.
This is a random part of about 22,000 deposited reagents. Of all reagents, about 1,510 (6.9%) got an active call. 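Active includes knockdowns raising or lowering LDL uptake; positive z-scores mean more uptake, negative mean less.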

{"target":"LOC388338 (retired record)","robust z-score, replicate 1":-1.67,"robust z-score, replicate 2":-1.85,"robust z-score, replicate 3":-1.81,"call":"inactive"}
{"target":"VCF1 (VCP nuclear cofactor family member 1)","robust z-score, replicate 1":-1.36,"robust z-score, replicate 2":-1.63,"robust z-score, replicate 3":-1.69,"call":"inactive"}
{"target":"LONRF2 (LON peptidase N-terminal domain and ring finger 2)","robust z-score, replicate 1":0.765,"robust z-score, replicate 2":-0.767,"robust z-score, replicate 3":-0.547,"call":"inactive"}
{"target":"OR6B3 (olfactory receptor family 6 subfamily B member 3)","robust z-score, replicate 1":-1.45,"robust z-score, replicate 2":-2.26,"robust z-score, replicate 3":-1.83,"call":"active"}
{"target":"WWC1 (WW and C2 domain containing 1)","robust z-score, replicate 1":1.65,"robust z-score, replicate 2":-0.246,"robust z-score, replicate 3":1.15,"call":"inactive"}
{"target":"ZNF367 (zinc finger protein 367)","robust z-score, replicate 1":-0.667,"robust z-score, replicate 2":-0.692,"robust z-score, replicate 3":-1.4,"call":"inactive"}
{"target":"HMHB1 (histocompatibility minor HB-1)","robust z-score, replicate 1":-0.0669,"robust z-score, replicate 2":-0.2,"robust z-score, replicate 3":0.519,"call":"inactive"}
{"target":"PDCL3 (phosducin like 3)","robust z-score, replicate 1":-0.484,"robust z-score, replicate 2":-0.797,"robust z-score, replicate 3":-0.505,"call":"inactive"}
{"target":"UQCRFS1","robust z-score, replicate 1":0.264,"robust z-score, replicate 2":-0.227,"robust z-score, replicate 3":0.358,"call":"inactive"}
{"target":"FGFBP3 (fibroblast growth factor binding protein 3)","robust z-score, replicate 1":0.0133,"robust z-score, replicate 2":-1.27,"robust z-score, replicate 3":-0.432,"call":"inactive"}
{"target":"OR51Q1 (olfactory receptor family 51 subfamily Q member 1)","robust z-score, replicate 1":-1.93,"robust z-score, replicate 2":-1.96,"robust z-score, replicate 3":-1.75,"call":"inactive"}
{"target":"LOC441450 (retired record)","robust z-score, replicate 1":-1.16,"robust z-score, replicate 2":-1.39,"robust z-score, replicate 3":-0.861,"call":"inactive"}
{"target":"ARF4 (ARF GTPase 4)","robust z-score, replicate 1":-1.23,"robust z-score, replicate 2":1.07,"robust z-score, replicate 3":-0.0614,"call":"inactive"}
{"target":"RPA4 (replication protein A4)","robust z-score, replicate 1":0.768,"robust z-score, replicate 2":0.0119,"robust z-score, replicate 3":1.02,"call":"inactive"}
{"target":"ZNF284 (zinc finger protein 284)","robust z-score, replicate 1":0.184,"robust z-score, replicate 2":0.219,"robust z-score, replicate 3":0.466,"call":"inactive"}
{"target":"MCC (MCC regulator of Wnt signaling pathway)","robust z-score, replicate 1":-0.524,"robust z-score, replicate 2":-0.351,"robust z-score, replicate 3":-0.254,"call":"inactive"}

Reformatted: entries from further up.
| target | robust z-score, replicate 1 | robust z-score, replicate 2 | robust z-score, replicate 3 | call |
| --- | --- | --- | --- | --- |
| LONRF2 (LON peptidase N-terminal domain and ring finger 2) | 0.765 | -0.767 | -0.547 | inactive |
| OR6B3 (olfactory receptor family 6 subfamily B member 3) | -1.45 | -2.26 | -1.83 | active |
| WWC1 (WW and C2 domain containing 1) | 1.65 | -0.246 | 1.15 | inactive |
| ZNF367 (zinc finger protein 367) | -0.667 | -0.692 | -1.4 | inactive |

More records follow.
{"target":"SLFN11 (schlafen family member 11)","robust z-score, replicate 1":-0.275,"robust z-score, replicate 2":-0.39,"robust z-score, replicate 3":-0.792,"call":"inactive"}
{"target":"ZDHHC15 (zDHHC palmitoyltransferase 15)","robust z-score, replicate 1":0.521,"robust z-score, replicate 2":0.514,"robust z-score, replicate 3":0.924,"call":"inactive"}
{"target":"SSR1 (signal sequence receptor subunit 1)","robust z-score, replicate 1":0.929,"robust z-score, replicate 2":0.429,"robust z-score, replicate 3":0.756,"call":"inactive"}
{"target":"ZNF436-AS1 (ZNF436 antisense RNA 1)","robust z-score, replicate 1":-0.699,"robust z-score, replicate 2":-0.82,"robust z-score, replicate 3":-0.714,"call":"inactive"}
{"target":"LOC390377 (retired record)","robust z-score, replicate 1":-0.107,"robust z-score, replicate 2":-0.259,"robust z-score, replicate 3":-0.488,"call":"inactive"}
{"target":"LOC440236 (retired record)","robust z-score, replicate 1":-0.718,"robust z-score, replicate 2":-0.5,"robust z-score, replicate 3":-0.552,"call":"inactive"}
{"target":"GPANK1 (G-patch domain and ankyrin repeats 1)","robust z-score, replicate 1":-0.186,"robust z-score, replicate 2":-1.44,"robust z-score, replicate 3":0.173,"call":"inactive"}
{"target":"ASB8 (ankyrin repeat and SOCS box containing 8)","robust z-score, replicate 1":-0.95,"robust z-score, replicate 2":-1.5,"robust z-score, replicate 3":-0.283,"call":"inactive"}
